Data as given in PubChem BioAssay AID1053208 (Peter MacCallum Cancer Centre, 2014)

Test: 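Genes whose silencing cuts survival of bone tumour cells only with doxorubicin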 (primary screen)
System: mouse osteosarcoma cells, early-passage culture from an engineered mouse model of fibroblastic bone tumour
Reagents: siRNA pool against mouse genes, 40 nM
Timing: about 120 h (48 h before drug, then 72 h with drug)
Challenge: doxorubicin 100 nM for 72 h, roughly 30-40% inhibitory dose
Measured: 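Viability read as ATP luminescence after 72 h of 100 nM doxorubicin or none, duplicate wells averaged, scaled to non-targeting siRNA, then expressed as robust z-scores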
Scale: viability z-score with doxorubicin: higher = more viable cells under doxorubicin; viability z-score without drug: higher = more viable cells with knock-down alone
Rule for the call: 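Called active if knock-down leaves viability unchanged without drug (z within -2 to 2) but lowers it with doxorubicin (z at or under -2)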
In all, the deposit lists about 17,000 reagents; below is a part drawn at random. 788 of them (4.7%) were called active. 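Calls rest on z-score classes alone; an extra cut-off of viability at most 70% of control was not applied to them.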 Not all columns of the deposit are shown. No sequences are given here.

Or4f15 (olfactory receptor family 4 subfamily F member 15) showed combined z-score class no change with or without drug; viability z-score with doxorubicin -1.01; viability z-score without drug -1.69; inactive.
For Iqcf3 (IQ motif containing F3) the deposit lists combined z-score class no change with or without drug; viability z-score with doxorubicin 0.79; viability z-score without drug -0.17; inactive.
With knock-down of Or9s15 (olfactory receptor family 9 subfamily S member 15), the record shows combined z-score class low cell count with and without drug; viability z-score with doxorubicin -2.7; viability z-score without drug -2.02; inactive.
Silencing of Zkscan2 (zinc finger with KRAB and SCAN domains 2) gave: combined z-score class high cell count with doxorubicin only; viability z-score with doxorubicin 2.02; viability z-score without drug 0.17; inactive.
For Zfp455 (zinc finger protein 455) the deposit lists combined z-score class no change with or without drug; viability z-score with doxorubicin 0.11; viability z-score without drug 0.51; inactive.
With knock-down of Lyz3 (lysozyme 3), the record shows combined z-score class high cell count without drug only; viability z-score with doxorubicin 1.35; viability z-score without drug 2.19; inactive.
With knock-down of Obp1a (odorant binding protein IA) the results were combined z-score class no change with or without drug; viability z-score with doxorubicin 0; viability z-score without drug -0.34; inactive.
After knock-down of Stk11ip (serine/threonine kinase 11 interacting protein) the results were combined z-score class no change with or without drug; viability z-score with doxorubicin -0.67; viability z-score without drug 0.67; inactive.
Against Efl1 (elongation factor like GTPase 1), the values are combined z-score class no change with or without drug; viability z-score with doxorubicin 0.11; viability z-score without drug -0.17; inactive.
Depletion of Tfip11 (tuftelin interacting protein 11) came out at: combined z-score class no change with or without drug; viability z-score with doxorubicin 0.56; viability z-score without drug -0.34; inactive.
With knock-down of Hpcal4 (hippocalcin-like 4), the screen gave combined z-score class no change with or without drug; viability z-score with doxorubicin 0.34; viability z-score without drug 0.51; inactive.
For Etfbkmt, the values are combined z-score class no change with or without drug; viability z-score with doxorubicin 1.01; viability z-score without drug 1.85; inactive.
